In this data set the test system is endogenous cancer-related proteins. Nature of the data set: protein identification analysis (iTRAQ labeling, MALDI TOF/MS). On the set-up: species or system human. As to conditions: for Relative quantity (test vs control) Ratio cc4-d/ ncc4: protein amount in cc4-d relative to ncc4 (colon non-cancer tissues, negative control); for Relative quantity (test vs control) Ratio cc4/ ncc4: protein amount in cc4 relative to ncc4 (colon non-cancer tissues, negative control).

On to Annexin A2 [Annexin A2 [Homo sapiens]], for which the “Relative quantity (test vs control) Ratio cc4-d/ ncc4” value came to 0.848 and the “Relative quantity (test vs control) Ratio cc4/ ncc4” value is recorded as 0.7956.

Turning to LGALS3 [LGALS3 [Homo sapiens]], the “Relative quantity (test vs control) Ratio cc4-d/ ncc4” value came to 1.402 and the “Relative quantity (test vs control) Ratio cc4/ ncc4” value is reported as 0.7576.

Take “PREDICTED: tubulin alpha-1A chain isoform 2 [Xenopus (Silurana) tropicalis]”: the “Relative quantity (test vs control) Ratio cc4-d/ ncc4” value is 0.9819 and the “Relative quantity (test vs control) Ratio cc4/ ncc4” value is given as 1.129.

Take “Tubulin, beta 2C [Tubulin, beta 2C [Homo sapiens]]”: the “Relative quantity (test vs control) Ratio cc4-d/ ncc4” value amounted to 0.7019 and the “Relative quantity (test vs control) Ratio cc4/ ncc4” value amounted to 0.9776.

With “enolase 1 variant [enolase 1 variant [Homo sapiens]]”, the “Relative quantity (test vs control) Ratio cc4-d/ ncc4” value was determined as 1.012 and the “Relative quantity (test vs control) Ratio cc4/ ncc4” value is reported as 1.199.

For “glyceraldehyde-3-phosphate dehydrogenase [Homo sapiens]”, the “Relative quantity (test vs control) Ratio cc4-d/ ncc4” value was determined as 1.144 and the “Relative quantity (test vs control) Ratio cc4/ ncc4” value came out at 1.006.

As to “heat shock 70 kDa protein 8 isoform 1 variant [Homo sapiens]”, the “Relative quantity (test vs control) Ratio cc4-d/ ncc4” value turned out to be 1.527 and the “Relative quantity (test vs control) Ratio cc4/ ncc4” value is listed as 1.086.

With “heat shock protein HSP 90-beta [Homo sapiens]”, the “Relative quantity (test vs control) Ratio cc4-d/ ncc4” value was 1.044 and the “Relative quantity (test vs control) Ratio cc4/ ncc4” value came out at 1.161.

For “hemoglobin subunit beta [hemoglobin subunit beta [Homo sapiens]]”, the “Relative quantity (test vs control) Ratio cc4-d/ ncc4” value was 0.4811 and the “Relative quantity (test vs control) Ratio cc4/ ncc4” value was found to be 1.496.

As to “serum albumin preproprotein [Homo sapiens]”, the “Relative quantity (test vs control) Ratio cc4-d/ ncc4” value is given as 0.4545 and the “Relative quantity (test vs control) Ratio cc4/ ncc4” value is reported as 0.6119.

Consider “spectrin, alpha, non-erythrocytic 1 (alpha-fodrin) variant [Homo sapiens]”, for which the “Relative quantity (test vs control) Ratio cc4-d/ ncc4” value turned out to be 1.018 and the “Relative quantity (test vs control) Ratio cc4/ ncc4” value is 0.8716.

“tumor rejection antigen (gp96) 1 [Homo sapiens]”: the “Relative quantity (test vs control) Ratio cc4-d/ ncc4” value is listed as 0.8476 and the “Relative quantity (test vs control) Ratio cc4/ ncc4” value worked out at 1.098.

These data come from patent US20140137274A1, “INDUCED MALIGNANT STEM CELLS” (LSIP, LLC, priority 2011, published 2014).
